The target of one assay is T1, PDI9:mCherry-KDEL (Arabidopsis thaliana, UniProt O48773 25-440).
T1 construct: Protein disulfide isomerase-9 (PDI9, PDI-M subfamily), Arabidopsis thaliana, At2g32920; made from the earlier construct PDI9:GFP-KDEL (Yuen et al., 2013) by exchanging GFP for mCherry; also called PDI9:Cherry-KDEL; PDI9:RFP; source: Arabidopsis leaf mesophyll protoplasts, transiently transfected, in living cells; not shown: mCherry-KDEL, C-terminal, kept
T1 sequence (looked up): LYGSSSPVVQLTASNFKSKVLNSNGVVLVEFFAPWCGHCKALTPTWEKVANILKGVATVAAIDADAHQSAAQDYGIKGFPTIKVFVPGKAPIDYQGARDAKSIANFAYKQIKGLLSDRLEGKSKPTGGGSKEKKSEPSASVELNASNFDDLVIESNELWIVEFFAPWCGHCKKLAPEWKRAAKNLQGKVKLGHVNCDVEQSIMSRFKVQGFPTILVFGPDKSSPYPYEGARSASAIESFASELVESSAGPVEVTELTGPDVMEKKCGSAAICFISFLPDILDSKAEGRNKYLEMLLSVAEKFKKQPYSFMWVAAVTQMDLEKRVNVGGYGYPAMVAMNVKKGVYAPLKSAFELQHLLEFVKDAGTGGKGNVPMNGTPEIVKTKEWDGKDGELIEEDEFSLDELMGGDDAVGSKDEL
Put plainly: FRET or BRET; FLIM-FRET in living Arabidopsis leaf mesophyll protoplasts coexpressing the GFP donor (on IRE1) and the mCherry acceptor (on PDI9), 16-18 h after transfection; GFP lifetime per region of interest; E = (1 - ti/t0) x 100% against single-transfected GFP:IRE1. Background: Bioluminescence resonance energy transfer reports proximity on the nanometre scale.

Assay [1] has as its target T2, HA : PDI9 (Arabidopsis thaliana) (UniProt O48773).
T2 sequence: T1 sequence (looked up)
Briefly: co-IP; extracts of Col-0 protoplasts cotransfected with HA:PDI9 and GFP:IRE1A or GFP:IRE1B; nonreducing buffer (10 mM HEPES pH 7.5, 100 mM NaCl, 1 mM EDTA, 10% glycerol, 0.5% Triton X-100); anti-HA magnetic beads, 3 h, 4°C; blots with anti-HA and anti-GFP.

The target of assay [2] is T3, PDI9(C195A):mCherry-KDEL (Arabidopsis thaliana) (UniProt O48773).
T3 sequence: T1 sequence (looked up) with C171A
Put plainly: FRET or BRET; FLIM-FRET in living Arabidopsis leaf mesophyll protoplasts coexpressing the GFP donor (on IRE1) and the mCherry acceptor (on PDI9), 16-18 h after transfection; GFP lifetime per region of interest; E = (1 - ti/t0) x 100% against single-transfected GFP:IRE1.

Residue numbers refer to the chain shown, from its start. Names may count otherwise. No constants are given. Whether binding was seen depends on the method and setting. In cells and extracts the contact can be indirect. Some results given as binding are weak or reduced against the parent protein; the word gives no strength. Tags and fused reporters may be left off the sequences shown.

B1: GFP : IRE1A(C257A) (receptor, UniProt Q9C5S2 31-841)
chain: DDVTYPIVPSSPGRRSILQIRREPPTEPNTKLVVDRDGKVFLKQQPKETPYWSFSTGSPMHSLYQAPANNNTENATEITRPHIIVEYLNNSKAATTVDGYHNWTVQEFFRQKPLVTDDGVTLGSETTSAYLVDGRSGRLIHVYKSTGDTKITNALVKPASTEDFVNEPLLIRRTDSKLEHFSKTTGKLVWNLTVSHFRAALLCDPVFNSGYDLGPKLQTGIYMPLLAGSQIDVRGPEIVIRVLHDQPMNVKMLPSPSLNHFESENSIMPFGKARESRKLQEQHKQKYTYLFGQWSPVKLLAPLVLLGVVVSVFIKKFSSRGSDVSLKAGPSKKKKNRKSAKDTNRQSVPRGQDQFELIEGGQMLLGFNNFQSGATDGRKIGKLFLSSKEIAKGSNGTVVFEGIYEGRPVAVKRLVRSHHEVAFKEIQNLIASDQHTNIIRWYGVEYDQDFVYLSLERCTCSLDDLIKSYLEFSMTKVLENNDSTEGVAAYKIQLDSLEGVIKGNNFWKVGGHPSPLMLKLMRDIVCGIVHLHELGIVHRDLKPQNVLISKDMTLSAKLSDMGISKRMSRDMSSLGHLATGSGSSGWQAPEQLLQGRQTRAVDMFSLGCVIFYTITGCKHPFGDDLERDVNIVKNKVDLFLVEHVPEASDLISRLLNPDPDLRPSATEVLLHPMFWNSEMRLSFLRDASDRVELENREADSEILKAMESTAPVAIGGKWDEKLEPVFITNIGRYRRYKYDSIRDLLRVIRNKLNHHRELPPEIQELVGTVPEGFDEYFAVRFPKLLIEVYRVISLHCREEEVFRKYFKCDII
Turning to B1, the binding entry with PDI9:mCherry-KDEL is given as “binds”.

B2: GFP : IRE1A (receptor, Arabidopsis thaliana, UniProt Q9C5S2 31-841, looked up)
chain: B1 chain with A227C
notes: IRE1A (inositol-requiring enzyme-1 kinase), Arabidopsis thaliana, At2g17520; mature polypeptide region amplified from Col-0 genomic DNA and placed after the IRE1A signal peptide and GFP; Construct order: IRE1A signal peptide, GFP, mature IRE1A; source: Arabidopsis leaf mesophyll protoplasts, transiently transfected; in living cells (FLIM-FRET) and in protoplast extract (co-I.P.); not shown: GFP …
As for B2, the binding entry in assay [1] and in assay [2] was “binds” each time.

B3: GFP : IRE1B(C222A) (receptor, UniProt Q93VJ2 22-881)
chain: FKGSEISKFYDKSISNQISQSDRESGYVLVSTVDGSISLVDMSSQKLDWTFHTNEPIYSSYQAPHYHYTTDEERSSVLGDDFYMDCDKDWRLYNSSVRKGKRVNEIVDASEFIGTLPYTSTDRIVLGKKDTSVFLLDWKTGKLVKRYRMDELYSNTVVENDKEKAIVLSKEAPLLFGSGFKKSEDFPELVYIERKDFKIQAISKFGDVLWSVSYAKMEAKLQNHESVQFISGLSSSVGKNQFPLSYTTSVPMVQLRNVKYETLFPRLGFLDEALYLPFQDRKPNQLAIGDGNQLTLPGNKEAEEVLSLPLPETVISQITDIIDGSTKQAGFASKFSGLIVLIFGFCVTMLSVCGLFFYRLRQSIRIKEPYVSEVPIATPKKKKSKKNGTTKAVHKKENGFISGGNKDPSHEENEKRLLTAFPGLNNSSAEGYRVGKLFVSNKEIAKGSNGTVVLEGSYEGRLVAVKRLVQSHHDVAQKEILNLMASDKHSNIVRWYGVDQDEHFIYISLELCACSLNDLIYASSALLESPMASSSIHSIQINPIFENGKGVELWKENGHPSPVLLKLMRDIVAGLVHLHDIGIVHRDLKPQNVLIVKNSSLCAKLSDMGISKRLPADTSALTRNSTGLGSGSSGWQAPEQLRNERQTRAVDLFSLGCVLFFCMTGGKHPYGDNYERDVNVLNDQKDLFLIESLPEAVHLLTGLLNPDPNLRPRAQDVMHHPLFWNSDMRLSFLRDASDRVELENREEGSQLLAALESTAAVTLNGRWDEKLDSIFLDNIGRYRRYKFDSIRDLLRVIRNKLNHYRELPKELQELLGSVPEGFERYFSSRFPKLLIQVYTVLFDYCNNEEFFFKYSKTTVF
Consider B3, for which, in the assay with PDI9:mCherry-KDEL, the binding result was “binds”.

B4: GFP : IRE1B (receptor, Arabidopsis thaliana, UniProt Q93VJ2 22-881, looked up)
chain: B3 chain with A201C
notes: IRE1B, Arabidopsis thaliana, At5g24360; mature polypeptide region amplified from Col-0 genomic DNA and placed after the IRE1B signal peptide and GFP; Construct order: IRE1B signal peptide, GFP, mature IRE1B; source: Arabidopsis leaf mesophyll protoplasts, transiently transfected; in living cells (FLIM-FRET) and in protoplast extract (co-I.P.); not shown: GFP (eGFP S65T), N-terminal, kept
As for B4, the binding result in assay [1] and in assay [2] was “binds” in each case.

(Values after article PMC11137178, “Protein disulfide isomerase-9 interacts with the lumenal region of the transmembrane endoplasmic reticulum stress sensor kinase, IRE1, to modulate the unfolded protein response in Arabidopsis” (Frontiers in Plant Science, 2024).)
